From the supplement of paper PMC3334620
The full ranking holds about 33,000 sequences; the median of “E-score (-0.5 to 0.5)” is about -0.016, and the highest 2% start at about 0.3. Some of the results follow.

Target: T1, Yer184c (UniProt P39961)
T1 sequence: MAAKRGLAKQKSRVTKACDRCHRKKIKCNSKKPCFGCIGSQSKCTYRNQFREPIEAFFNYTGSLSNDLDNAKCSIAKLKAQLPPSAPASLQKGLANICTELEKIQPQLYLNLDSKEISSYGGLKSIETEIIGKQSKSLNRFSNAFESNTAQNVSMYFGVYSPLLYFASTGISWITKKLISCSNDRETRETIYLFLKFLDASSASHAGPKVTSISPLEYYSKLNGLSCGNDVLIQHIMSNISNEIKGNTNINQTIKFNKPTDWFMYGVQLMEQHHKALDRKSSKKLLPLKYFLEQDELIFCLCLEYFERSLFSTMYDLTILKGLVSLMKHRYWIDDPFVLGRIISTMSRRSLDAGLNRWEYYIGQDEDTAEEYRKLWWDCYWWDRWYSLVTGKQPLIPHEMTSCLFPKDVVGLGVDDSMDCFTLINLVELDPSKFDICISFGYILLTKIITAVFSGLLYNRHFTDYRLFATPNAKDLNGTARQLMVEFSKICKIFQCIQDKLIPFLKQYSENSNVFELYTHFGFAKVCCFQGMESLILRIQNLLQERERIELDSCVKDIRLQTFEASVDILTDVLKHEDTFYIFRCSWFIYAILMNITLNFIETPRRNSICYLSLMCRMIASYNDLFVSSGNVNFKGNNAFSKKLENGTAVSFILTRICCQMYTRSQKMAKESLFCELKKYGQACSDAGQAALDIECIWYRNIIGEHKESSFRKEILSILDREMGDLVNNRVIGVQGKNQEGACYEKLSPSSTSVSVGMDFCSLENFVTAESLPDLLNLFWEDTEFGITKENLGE
Assay: PBM E-score (8-mer binding enrichment) (E-score (-0.5 to 0.5)); higher = stronger / more preferred TF binding
Settings: protein concentration: 100 nM; construct: GST-full length
Procedure, shortened: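 E-scores (a modified Wilcoxon-Mann-Whitney statistic) were assigned by the Universal PBM Analysis Suite to every ungapped eight-base word pooled with its reverse complement. The input came from universal all-10-mer Agilent arrays made double-stranded by primer extension and probed with GST-tagged yeast transcription factors at about 100-200 nM. Fluorescent anti-GST detected bound protein, and masliner normalised the scans.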

| Sequence | PBM E-score |
| --- | --- |
| GTGGCGAA | 0.104 |
| GAACAGCA | 0.123 |
| ACAGTCGT | -0.189 |
| ATGACAAC | 0.233 |
| AAGCGACT | -0.00129 |
| GCTCAACA | -0.0131 |
| TGCATAAA | 0.23 |
| GGTTGTCA | -0.0206 |
| AGGACCTC | -0.106 |
| AAGACTCT | 0.0451 |
| GCATTTGA | 0.0784 |
| AGTTCCGA | 0.313 |
| ACTTCGTC | 0.0888 |
| ACGGGGTA | -0.151 |
| CCGACTTC | -0.243 |
| ATATGACA | 0.062 |
| CTACCACA | -0.16 |
| ATGTTGGG | -0.306 |
| CATGGCGA | -0.0913 |
| CCGCCTGC | 0.0616 |
| CCACTCAA | -0.00608 |
| GGGGGAGA | -0.284 |
| ATTCGACA | -0.0581 |
| AGCCGCGG | 0.419 |
| AGGACGGC | -0.0658 |

| Sequence | PBM E-score |
| --- | --- |
| GCTAGGCA | -0.12 |
| ACACCTTC | 0.0962 |
| AGGAAGGA | -0.247 |
| TACAGCAA | 0.0296 |
| AACCCTTA | -0.0377 |
| CGGGTTCC | 0.246 |
| AACTGAAC | 0.0915 |
| CCAGCTGA | -0.0242 |
| CATAAAAC | -0.0501 |
| CTACGCAG | -0.0366 |
| CGTCTGGC | 0.0178 |
| ATCGCAGC | -0.0331 |
| GCTGTAAA | 0.0629 |
| ATACACAA | 0.139 |
| AAACGGGG | 0.0448 |
| CCGGCAGC | 0.254 |
| AGGCTCCG | 0.246 |
| GAATTTAA | 0.169 |
| GTCGCCAA | -0.0646 |
| TCACAACA | 0.126 |
| AGTGGCTC | -0.21 |
| CATCTGTA | -0.077 |
| AAGAACTA | 0.156 |
| AGGTACAG | -0.297 |
| CACCAACA | -0.23 |

| Sequence | PBM E-score |
| --- | --- |
| GATATTGA | 0.0825 |
| TCGAGTCA | -0.161 |
| TAGAAACA | 0.0611 |
| CGTCTTAG | -0.116 |
| ATAGCAGG | 0.0116 |
| AACTCAGG | -0.0713 |
| CGCTGTAG | -0.0114 |
| ACGCGGAG | 0.143 |
| CGGTCCCC | -0.142 |
| GACCAGAC | -0.0869 |
| AGGAGATA | -0.134 |
| GGGCCGTA | 0.072 |
| AATAATTC | 0.215 |
| ATCCCTGC | -0.0479 |
| ACCCAGAA | 0.158 |
| AAATTAGG | 0.233 |
| AGGACTAC | -0.393 |
| ATTTAGGA | 0.0767 |
| AAGAGTCC | -0.109 |
| CAGGCACC | -0.3 |
| GCCTCTGA | -0.25 |
| ATAATGAA | 0.237 |
| CTCGTCAG | -0.0979 |
| CCGCTCTC | -0.0794 |
| ACATGCCA | -0.165 |

| Sequence | PBM E-score |
| --- | --- |
| CGCCTTGC | -0.152 |
| TGACGTAA | -0.0158 |
| AGGATTTG | 0.0747 |
| GAGCGGTA | 0.0436 |
| CTTCGTCC | -0.137 |
| ACAAAAGA | 0.0849 |
| ATGGGTAC | -0.25 |
| TAAAGCGA | 0.0559 |
| AGTTTAGG | -0.0901 |
| AACCATCT | -0.229 |
| CACGATGC | -0.163 |
| TCTTGTCA | 0.0655 |
| CGATAATA | 0.255 |
| TAAATTTA | 0.311 |
| AACGTCCG | 0.115 |
| GATCACTA | 0.0673 |
| CGTCCGTC | -0.188 |
| AGTCCGCA | 0.019 |
| TGGTGTAA | -0.0943 |
| CACTCCCA | -0.154 |
| AAACTACG | 0.0299 |
| AACTAAAA | 0.145 |
| AACGTATA | -0.0905 |
| CGCATGAG | -0.284 |
| ATTACAAT | -0.0245 |

A few values from the results shown.
PBM E-score with CGCCTTGC reads -0.152
PBM E-score with AACCCTTA reads -0.0377
PBM E-score with AACGTCCG reads 0.115
PBM E-score with ATACACAA reads 0.139
PBM E-score with AACTGAAC reads 0.0915

Following part

| Sequence | PBM E-score |
| --- | --- |
| ATTCGTCG | 0.193 |
| CGTTCGAA | 0.164 |
| CCCCTCGC | -0.152 |
| AATGCAGA | 0.0377 |
| GGACTACA | -0.0688 |
| GCTGATAA | 0.183 |
| CGGAAAAC | 0.349 |
| CATAGATC | -0.0937 |
| ACGCAACA | 0.0928 |
| GATCACCA | -0.0157 |
| CTCAGCAC | -0.0675 |
| CACCAGCA | -0.172 |
| ATGGCTGG | -0.269 |
| ACATCCGT | 0.167 |
| CCGGGGTC | 0.17 |
| ATCAAGGC | -0.103 |
| GTGGAGAA | -0.0473 |
| TACGCGTA | 0.0413 |
| CCTTCGCA | -0.0813 |
| GTTCCCTA | 0.00458 |
| ACTACGAA | 0.125 |
| GCTACCTA | -0.109 |
| GTGATGCA | 0.0597 |
| AAACGGCC | 0.194 |
| CGGGTTGA | -0.017 |

| Sequence | PBM E-score |
| --- | --- |
| CCTGGAAA | 0.00157 |
| CCGCAATC | 0.048 |
| AGAGTCTC | -0.247 |
| CCTTAACA | -0.128 |
| AGGGGATA | -0.27 |
| ATTTAGTG | 0.193 |
| ATGATATA | 0.0663 |
| CTACTCCC | -0.0431 |
| AGGTGTAT | -0.079 |
| ATAGCACA | 0.0125 |
| ACGGTTAC | 0.122 |
| CGTAAACG | 0.0568 |
| CTTGGGAC | -0.112 |
| ATACAAAT | 0.216 |
| TAATAGCA | -0.0153 |
| AGACGAAT | 0.078 |
| ATTTCTTA | 0.216 |
| GCCCCCGA | -0.295 |
| ACTGTTGG | -0.178 |
| CGATGAAG | 0.0793 |
| ATCTTCCG | 0.289 |
| ACCGATCT | 0.0299 |
| AAGCATCG | 0.121 |
| CTACTAGA | -0.0965 |
| CCCTTTAG | -0.347 |

| Sequence | PBM E-score |
| --- | --- |
| AAGACGAA | 0.0744 |
| ATCTCTCC | -0.157 |
| TAATGCAA | -0.0977 |
| CTAACCAG | -0.0926 |
| CAAATATG | 0.195 |
| GCCAACGC | 0.0508 |
| GATCAATC | 0.0671 |
| AAACAGGA | -0.0365 |
| CAGCGCTG | 0.129 |
| CCGTAGGA | -0.0893 |
| ACCGTTTC | 0.116 |
| CTACCGTA | -0.0102 |
| AAGTCTGT | -0.0608 |
| GACCGCCC | -0.0546 |
| CGGGTTGC | 0.118 |
| ATACGAAG | 0.146 |
| AAATAAAC | 0.179 |
| CCGACAGC | -0.0471 |
| GGACGGCA | 0.0615 |
| CGGATCGC | 0.208 |
| GTGTGACA | -0.19 |
| CCATTTTA | 0.148 |
| GGAAGGCA | -0.0597 |
| AATGCGCC | 0.0748 |
| CGTGGCCA | -0.31 |

| Sequence | PBM E-score |
| --- | --- |
| AACTTTCT | 0.0945 |
| ATTTCTCC | 0.122 |
| ATAGTAGC | 0.108 |
| ATCGCCGC | 0.206 |
| GTCCGCGA | 0.08 |
| AAGGTGCC | -0.0528 |
| GTTGATAA | 0.214 |
| GGCCTCCA | -0.0306 |
| ACGGCTTC | 0.0891 |
| GAGAATGA | 0.13 |
| CGACCACG | 0.0622 |
| CTGCAGCC | -0.0492 |
| AAGCTGAA | 0.109 |
| GGAGCACC | -0.178 |
| ATCGAGTG | 0.122 |
| ACTTGCCG | 0.142 |
| AGTATGGC | -0.156 |
| CTGACAAC | 0.00442 |
| ATCAGGAC | 0.0761 |
| AGGTTTCG | -0.105 |
| CACCGGGG | -0.116 |
| GATACTGC | -0.0078 |
| ATCTGAAA | 0.155 |
| AGACGTCC | -0.0912 |
| CCCTGTAG | -0.187 |

| Sequence | PBM E-score |
| --- | --- |
| CGGTGGGA | -0.035 |
| CCCACAAC | -0.0821 |
| ATAGGCCA | -0.065 |
| CACTCGCA | -0.104 |
| AAAACTCT | 0.0438 |
| ATTCACTG | -0.0733 |
| AGCGTGCA | 0.0446 |
| CTAATGGC | -0.0994 |
| GCTGCTTA | 0.0261 |
| GACTAACC | 0.0069 |
| ACATAGTG | -0.0527 |
| CCGTTTTA | 0.156 |
| CCAATTGG | 0.041 |
| CGCTCGAA | 0.0413 |
| GACAAGTA | -0.0032 |
| ACAAACCG | 0.201 |
| AGAGCTTC | -0.0227 |
| AAACCACA | -0.17 |
| AGGTCCTG | -0.162 |
